The target of test [1] is Macaca nemestrina SAS1B on oocytes of ovarian cortex (Macaca nemestrina). In words: immunohistochemistry on Macaca nemestrina ovary.
Test [2] shares this target. In words: immunohistochemistry on FFPE Macaca nemestrina ovarian cortex.

Data on two molecules can be found in patent publication US20230265212A1 (OVERA, published 2023).

No constants are given. Whether binding was seen depends on the method and setting. A result given as binding can be weak or reduced; the word gives no strength.

B1: monoclonal antibody OV119 (antibody, V domains shown)
VH: EVQLQESGPELVKPGASVKISCKTSGYTFTEYPMHWVKQSHGKSLEWIGGINPNNGDTTYNQRFKGKATLTVDKSSGTAYMELRSLTSEDSAVYYCVPNFDWFAYWGQGTLVTVSP
VL: DVLMTQSPLSLPVSLGDQASISCRSSQSIVHSYGNTYLEWYLQKPGQSPKLLIYKVSNRFSGVPDRFSGSGSGTDFTLRISRVEAEDLGIYYCFQGSHLPFTFGGGTKLEIK
notes: Mouse hybridoma monoclonal IgG; also called naked OV119 (unconjugated)
With B1, the binding result in test [1] and in test [2] was “binds” throughout.

B2: monoclonal antibody OV115 (antibody, V domains shown)
VH: DVQLQESGPGLVKPSQSLSLTCTVTGYSLTSDYAWNWIRQFPGKKVEWMGYLSYSGRTSYNPSLKSRISITRDTSRNQFFLQLNSVTTEDTATYYCARMGGNFGFDYWGQGTTLTVST
VL: GIVMTQAPLSLPVSLGDQASISCRSSQSLVHINGSTYLHWYLQKPGQSPNLLIYKVSYRFSGVPDRFSGSGSGTDFTLKITRVEAEDLGVYFCSQSTHVPLTFGSGTKLEIK
As to B2, the binding result in test [2] was “binds”.
